The structures appear in SMILES notation.

The subject of this series is transient MCAo in rats. Kind of series: Transient MCAo evaluated by the staircase test. It is filed as in vivo, Sprague Dawley rats. As to conditions: mild food deprivation. An excerpt: The test challenges fine motor, sensory and stereognostic function of the cortex in enabling the forepaw (hand) to identify, grasp and accurately manipulate small objects such as food pellets. Loss of the ability to identify, grasp and manipulate small objects reflects a lesion of the fronto-parietal cortex and is a common and crippling deficit after stroke in humans.
The materials for this procedure are identical to those from Physiological Example 5, except for the different concentrations of PRS-211,095. The procedural differences are as follows: • Male Sprague Dawley rats, 230–270 gr (Harlan, Israel) were used. The following compounds and their respective concentrations were tested:
Dexanabinol and analogs PRS-211,095 and PRS-211,220 in PEG ethanol cosolvent 50 mg/ml. Dexanabinol, the analogs and their vehicle were diluted in Intralipid® 20% (Pharmacia) prior to drug administration.
The procedure is essentially as described in Montoya et al. (Montoya, Campbell-Hope, Pemberton and Dunnet, J. Neurosci. Meth. 36:219–228,1991) Animals were kept under mild food deprivation for 3–5 days, receiving 15-gr. food once a day (between 16:00 and 17:00) and free access to water.
In brief, the staircase box contains two rows of seven stairs in each. Two 45 mg food pellets were placed on each step. Animals were placed in the box for 15 minutes sessions. At the end of the session the number of eaten (grasped) and displaced pellets was counted and recorded. Animals were tested twice a day, 4 hours apart. The first session was performed between 8–9 AM and second between 12–13 PM. The animals were trained until they grasped (ate) at least 8 pellets from each set of stairs for two consecutive sessions. Up to one week after the end of the successful training session the animals underwent transient MCAo.
Transient MCAO was performed in essentially the same manner as described in Physiological example 5 with the following modification at step i:
Two minutes prior to thread removal rats were re-anesthetized and administered IV with Dexanabinol 5 mg/kg, analogs
PRS-211,220 or PRS-211,095 at 0.5, 2.5, 5 or 10 mg/kg or vehicle 5 ml/kg. One additional group was sham-treated.
Animals were allowed to recover from the surgery for five days. The mild food deprivation was re-employed during the days following the ischemic insult. They were tested in the staircase box using the above method for 9–12 days. Animals were weighed twice a week during this period.
At the end of the evaluation period, animals were euthanized with pentobarbitone 100 mg/kg IP. The animals were perfused through the heart with heparinized 4% formaldehyde solution in PBS (pH 7.4). Brains were then removed, and kept in the same solution for at least 24h. Then the brains—from the rostral side of the cortex to the cerebellum—were sunk in 30% sucrose in PBS, cryosectioned (20 μm), dried and stained with thionin for histological evaluation of the brain infarct volume. Eight sections at the levels of: 3.3;+2.8;+1.8; +0.8; −0.4;−1.4; −2.2; and −3.4 from Bregma were measured (Swanson, Rat Brain Atlas, 1992). Sections were captured by a CCD camera (V-tech MP-470) and image analyzed (Scion image 1.62A). Infarct size was determined from the series of the 8 sections by either calculation of the infarct volume (mm3) by summing the series of mean lesion areas of two adjacent sections multiplied by the distance between them or calculation of the mean infarct size as percentage of the contralateral hemisphere size; calculation of the mean of the surviving ipsilateral side as percentage of the contralateral hemisphere size; calculation of the mean ipsilateral side ventricle as percentage of the contralateral hemisphere ventricle.
• a. The infarct size was compared using ANOVA (analysis of variance) followed by Duncan's post hoc test. • b. The staircase task performance was evaluated after collecting the data and compressing it into four blocks of six trials: […]

`CCCCCCC(C)(C)c1cc(O)c2c(c1)OC(C)(C)C1CC=C(Cn3ccnc3)CC21.Cl` (single isomer, unassigned; (+)) [211,095-000, (+)-(3S ,4S )-6,6-Dimethyl-(1,1-dimethylheptyl)-1-hydroxy-9-(imidazolomethyl)-6a,7,10,10a-tetrahydro-6H-dibenzo[b,d]pyran]: the “body weight gain compared to base line” value is on record as “did not gain weight” (0.5 mg/kg), “did not gain weight” (2.5 mg/kg), 4% (5 mg/kg) and 17% (10 mg/kg).

`CCCCCCC(C)(C)c1cc(O)c2c(c1)OC(C)(C)[C@H]1CC=C(Cn3cccn3)C[C@H]21` [211,220-000, (+)-(3S,4S)-6,6-Dimethyl-(1,1-dimethylheptyl)-1-hydroxy-9-(pyrazolomethyl)-6a,7,10,10a-tetrahydro-6H-dibenzo[b,d]pyran]: the “body weight gain compared to base line” value (0.1 mg/kg) stood at 3%, the “body weight gain compared to base line” value (0.5 mg/kg) is on record as 10%, the “body weight gain compared to base line” value (2.5 mg/kg) is reported as 5% and the “body weight gain compared to base line” value (5 mg/kg) was 4%.

On to `CCCCCCC(C)(C)c1cc(O)c2c(c1)OC(C)(C)[C@H]1CC=C(CO)CC21` (stereo partly drawn) [211,007-000, 1,1 dimethyl heptyl-(3S,4S)-7-hydroxy-Δ^6-tetrahydrocannabinol, reference compound], for which the “body weight gain compared to base line” value (5 mg/kg) is recorded as 7%.

Values taken from US7235584B2, “Non-psychotropic cannabinoids” (Pharmos Corporation, priority 2000, dated 2007).
